# Reference: the supplement of paper PMC12542422
# Where a name gives a salt, the structure may show the parent alone. ± gives the standard deviation of the averaged measurements. This is one part of the list. Values are raw readings; no control value is given beside them.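 Ribosome-assembly readouts in HeLa cells were imaged via ENP1 staining, with or without export block, or inducible tagged ribosomal protein reporters. Machine learning classified per-cell signal location versus solvent (DMSO) controls. Hits surpassed the DMSO false-positive mean by five standard deviations and were visually confirmed; three biological replicates.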
# System: HeLa K (ENP1 immunofluorescence, +LMB)
# Assay: fraction of cells with nucleolar or nucleolar/nucleoplasmic ENP1 signal (MainHitrate); higher = more cells with nucleolar/nuclear readout signal (for ENP1 -LMB: less RNAPI inhibition; for +LMB ENP1 and RP reporters: stronger nuclear/nucleolar retention, i.e. ribosome biogenesis defect)
# Conditions: concentration: 1 µM; treatment time: 6 h; ENP1 +LMB; leptomycin B: 20 nM, last 1.5 h
row,Compound,fraction
1,CCc1c(Cl)c(O)c(Cl)c(O)c1C(=O)O[C@H]1[C@H](O)[C@H](OC)[C@H](OC/C2=C\C=C\C[C@H](O)/C(C)=C/[C@H](CC)[C@@H](O[C@@H]3OC(C)(C)[C@@H](OC(=O)C(C)C)[C@H](O)[C@@H]3O)/C(C)=C/C(C)=C/C[C@@H]([C@@H](C)O)OC2=O)O[C@@H]1C [Fidaxomicin],0.121 ± 0.19
2,COc1ccc(CN2CCN(C(c3ccc(F)cc3)c3ccc(F)cc3)CC2)c(OC)c1OC [Lomerizine HCl],0.0459 ± 0.05
3,CC(N/C(=N\C#N)Nc1ccncc1)C(C)(C)C (centres undefined) [Pinacidil],0.172 ± 0.25
4,CO[C@H]1/C=C/O[C@@]2(C)Oc3c(C)c(O)c4c(O)c(c(/C=N/N5CCN(C6CCCC6)CC5)c(O)c4c3C2=O)NC(=O)/C(C)=C\C=C\[C@H](C)[C@H](O)[C@@H](C)[C@@H](O)[C@@H](C)[C@H](OC(C)=O)[C@@H]1C [Rifapentine (Priftin)],0.108 ± 0.13
5,CC(C)NCC(O)COc1ccc(CCOCC2CC2)cc1 (centres undefined) [Betaxolol (Betoptic)],0.0665 ± 0.091
6,N=C(N)c1ccc(OCCCCCOc2ccc(C(=N)N)cc2)cc1 [Pentamidine],0.13 ± 0.2
7,COc1ccc2cc1Oc1ccc(cc1)C[C@H]1c3c(cc4c(c3Oc3cc5c(cc3OC)CCN(C)[C@@H]5C2)OCO4)CCN1C [Cepharanthine],0.0867 ± 0.13
8,COC(=O)C1=C(C)NC(C)=C(C(=O)OC2CCCN(Cc3ccccc3)C2)C1c1cccc([N+](=O)[O-])c1 (centres undefined) [Benidipine hydrochloride],0.117 ± 0.14
9,CC[C@H](C)C(=O)O[C@H]1C[C@H](O)C=C2C=C[C@H](C)[C@H](CC[C@@H](O)C[C@@H](O)CC(=O)O)[C@H]21 [Pravastatin sodium],0.145 ± 0.22
10,Nc1ccn([C@@H]2O[C@H](CO)[C@@H](O)[C@H]2O)c(=O)n1 [Cytidine],0.131 ± 0.2
11,CCN[C@H]1C[C@H](C)S(=O)(=O)c2sc(S(N)(=O)=O)cc21 [Dorzolamide HCL],0.153 ± 0.13
12,O=C1CN2Cc3c(ccc(Cl)c3Cl)N=C2N1 [Anagrelide HCl],0.0693 ± 0.099
13,CCOC(=O)O[C@]1(C(=O)OCCl)CC[C@H]2[C@@H]3CCC4=CC(=O)C=C[C@]4(C)[C@H]3[C@@H](O)C[C@@]21C [Loteprednol etabonate],0.0539 ± 0.032
14,Cc1ccc(S(=O)(=O)NC(=O)NN2CCCCCC2)cc1 [Tolazamide],0.111 ± 0.13
15,CC[C@H]1OC(=O)[C@H](C)[C@@H](O[C@H]2C[C@@](C)(OC)[C@@H](O)[C@H](C)O2)[C@H](C)[C@@H](O[C@@H]2O[C@H](C)C[C@H](N(C)C)[C@H]2O)[C@](C)(O)C[C@@H](C)/C(=N\OCOCCOC)[C@H](C)[C@@H](O)[C@]1(C)O [Roxithromycin (Roxl-150)],0.0977 ± 0.14
16,CC(C)[C@H]1CC[C@H](C(=O)N[C@H](Cc2ccccc2)C(=O)O)CC1 [Nateglinide (Starlix)],0.335 ± 0.55
17,CC(C)C[C@H](NC(=O)[C@H](CCc1ccccc1)NC(=O)CN1CCOCC1)C(=O)N[C@@H](Cc1ccccc1)C(=O)N[C@@H](CC(C)C)C(=O)[C@@]1(C)CO1 [Carfilzomib (PR-171)],0.887 ± 0.066
18,COc1ccc(Cl)cc1C(=O)NCCc1ccc(S(=O)(=O)NC(=O)NC2CCCCC2)cc1 [Glyburide (Diabeta)],0.109 ± 0.12
19,CN(C)[C@@H]1C(O)=C(C(N)=O)C(=O)[C@@]2(O)C(O)=C3C(=O)c4c(O)cccc4[C@@](C)(O)[C@H]3[C@H](O)[C@@H]12 [Oxytetracycline (Terramycin)],0.107 ± 0.14
20,CC(=O)O[C@H]1C[C@@H]2CC[C@@H]3[C@H](CC[C@@]4(C)[C@H]3C[C@H]([N+]3(C)CCCCC3)[C@@H]4OC(C)=O)[C@@]2(C)C[C@@H]1N1CCCCC1 [Vecuronium Bromide],0.117 ± 0.086

# Structures from the list above that contain four or more nitrogen atoms:
row,Compound,fraction
3,CC(N/C(=N\C#N)Nc1ccncc1)C(C)(C)C (centres undefined) [Pinacidil],0.172 ± 0.25
4,CO[C@H]1/C=C/O[C@@]2(C)Oc3c(C)c(O)c4c(O)c(c(/C=N/N5CCN(C6CCCC6)CC5)c(O)c4c3C2=O)NC(=O)/C(C)=C\C=C\[C@H](C)[C@H](O)[C@@H](C)[C@@H](O)[C@@H](C)[C@H](OC(C)=O)[C@@H]1C [Rifapentine (Priftin)],0.108 ± 0.13
6,N=C(N)c1ccc(OCCCCCOc2ccc(C(=N)N)cc2)cc1 [Pentamidine],0.13 ± 0.2
17,CC(C)C[C@H](NC(=O)[C@H](CCc1ccccc1)NC(=O)CN1CCOCC1)C(=O)N[C@@H](Cc1ccccc1)C(=O)N[C@@H](CC(C)C)C(=O)[C@@]1(C)CO1 [Carfilzomib (PR-171)],0.887 ± 0.066

# Next part.

row,Compound,fraction
1,COc1ccc2[nH]c([S@@+]([O-])Cc3ncc(C)c(OC)c3C)nc2c1 [Esomeprazole sodium (Nexium)],0.192 ± 0.29
2,CNS(=O)(=O)Cc1ccc2[nH]cc(CCN(C)C)c2c1 [Sumatriptan succinate],0.121 ± 0.13
3,O=C(O)/C=C/c1ccc(Cn2ccnc2)cc1 [Ozagrel],0.106 ± 0.16
4,COc1c(C)c2c(c(O)c1C/C=C(\C)CCC(=O)OCCN1CCOCC1)C(=O)OC2 [Mycophenolate mofetil (CellCept)],0.0285 ± 0.039
5,N#CC[C@H](C1CCCC1)n1cc(-c2ncnc3[nH]ccc23)cn1,0.114 ± 0.13
6,Nc1nc2ccc(OC(F)(F)F)cc2s1 [Riluzole (Rilutek)],0.159 ± 0.15
7,O=C(O)c1cc(=O)c2c(OCC(O)COc3cccc4oc(C(=O)O)cc(=O)c34)cccc2o1 [Disodium Cromoglycate],0.128 ± 0.2
8,Cc1cccc(Nc2ccccc2C(=O)O)c1C [Mefenamic acid],0.0552 ± 0.071
9,Nc1nc(F)nc2c1ncn2[C@@H]1O[C@H](COP(=O)(O)O)[C@@H](O)[C@@H]1O [Fludarabine Phosphate (Fludara)],0.11 ± 0.087
10,CN(C)c1nc(N(C)C)nc(N(C)C)n1 [Altretamine (Hexalen)],0.13 ± 0.17
11,Nc1nc(Cl)nc2c1ncn2[C@@H]1O[C@H](CO)[C@@H](O)[C@@H]1F [Clofarabine],0.107 ± 0.091
12,Cc1ccccc1C(OCCN(C)C)c1ccccc1 (centres undefined) [Orphenadrine citrate (Norflex)],0.159 ± 0.24
13,COc1ccc(CN(CCN(C)C)c2ccccn2)cc1 [Pyrilamine Maleate],0.23 ± 0.32
14,CCC(C)n1ncn(-c2ccc(N3CCN(c4ccc(OCC5COC(Cn6cncn6)(c6ccc(Cl)cc6Cl)O5)cc4)CC3)cc2)c1=O (centres undefined) [Itraconazole (Sporanox)],0.104 ± 0.15
15,NC(=O)c1cccnc1 [Nicotinamide (Niacinamide)],0.0845 ± 0.11
16,N[C@@H](Cc1ccc(O)c(O)c1)C(=O)O [Levodopa (Sinemet)],0.299 ± 0.33
17,C[C@]12CCC3=C4CCC(=O)C=C4CC[C@H]3[C@@H]1CC[C@@]2(O)CC#N [Dienogest],0.144 ± 0.2
18,CC(C)/N=c1\cc2n(-c3ccc(Cl)cc3)c3ccccc3nc-2cc1Nc1ccc(Cl)cc1 [Clofazimine],0.113 ± 0.17
19,CO[C@H]1/C=C/O[C@@]2(C)Oc3c(C)c(O)c4c(c3C2=O)C2=NC3(CCN(CC(C)C)CC3)NC2=C(NC(=O)/C(C)=C\C=C\[C@H](C)[C@H](O)[C@@H](C)[C@@H](O)[C@@H](C)[C@H](OC(C)=O)[C@@H]1C)C4=O [Rifabutin (Mycobutin)],0.129 ± 0.15
